Measured values published in US20220362404A1.
Results are given in words; binding and its absence hold for the method and conditions named. In cells and extracts the contact can be indirect. Some results given as binding are weak or reduced against the parent protein; the word gives no strength. Sequences can lack the tags named with a protein.

B1: Flag-tagged cyclin F (protein, not shown: small tags and cut ends)
chain: MGSGGVVHCRCAKCFCYPTKRRIRRRPRNLTILSLPEDVLFHILKWLSVEDILAVRAVHSQLKDLVDNHASVWACASFQELWPSPGNLKLFERAAEKGNFEAAVKLGIAYLYNEGLSVSDEARAEVNGLKASRFFSLAERLNVGAAPFIWLFIRPPWSVSGSCCKAVVHESLRAECQLQRTHKASILHCLGRVLSLFEDEEKQQQAHDLFEEAAHQGCLTSSYLLWESDRRTDVSDPGRCLHSFRKLRDYAAKGCWEAQLSLAKACANANQLGLEVRASSEIVCQLFQASQAVSKQQVFSVQKGLNDTMRYILIDWLVEVATMKDFTSLCLHLTVECVDRYLRRRLVPRYRLQLLGIACMVICTRFISKEILTIREAVWLTDNTYKYEDLVRMMGEIVSALEGKIRVPTVVDYKEVLLTLVPVELRTQHLCSFLCELSLLHTSLSAYAPARLAAAALLLARLTHGQTQPWTTQLWDLTGFSYEDLIPCVLSLHKKCFHDDAPKDYRQVSLTAVKQRFEDKRYGEISQEEVLSYSQLCAALGVTQDSPDPPTFLSTGEIHAFLSSPSGRRTKRKRENSLQEDRGSFVTTPTAELSSQEETLLGSFLDWSLDCCSGYEGDQESEGEKEGDVTAPSGILDVTVVYLNPEQHCCQESSDEEACPEDKGPQDPQALALDTQIPATPGPKPLVRTSREPGKDVTTSGYSSVSTASPTSSVDGGLGALPQPTSVLSLDSDSHTQPCHHQARKSCLQCRPPSPPESSVPQQQVKRINLCIHSEEEDMNLGLVRL
B2: recombinant full-length GST-tagged cyclin F (protein, not shown: a dimerising Fc or GST)
chain: B1 chain

What was measured:
[1] = biological target: Myc-tagged N-terminal fragment of TDP-43 (1-161) (UniProt Q13148); experiment: co-immunoprecipitation with anti-myc from HEK293 lysate, immunoblot
[2] = biological target: HA-tagged TDP-43 (wild type) (UniProt Q13148); experiment: co-immunoprecipitation with anti-Flag from HEK293 lysate, immunoblot
variant TDP-43 (RxL>AxA) = variant TDP-43 (RxL>AxA) (UniProt Q13148); experiment: as above
[3] = biological target: full-length phosphorylated TDP-43 (409/410) (UniProt Q13148); experiment: co-immunoprecipitation with anti-Flag, immunoblot with anti-phospho-TDP-43
[4] = biological target: recombinant His-tagged TDP-43 (full length) (UniProt Q13148); experiment: Ni-NTA pull-down with recombinant proteins, immunoblot

| Binder | binding [1] | binding [2] | binding (variant TDP-43 (RxL>AxA)) | binding [3] | binding [4] |
| --- | --- | --- | --- | --- | --- |
| B1 | binds | binds | binds | binds |  |
| B2 |  |  |  |  | binds |
